Results: publication PMC3891853

Protein sequences, listed by entry. Tags and fused reporters are not part of them. Lines headed by an entry give the natural chain unless they say otherwise; changes in a name come on top.
UniProt P04150: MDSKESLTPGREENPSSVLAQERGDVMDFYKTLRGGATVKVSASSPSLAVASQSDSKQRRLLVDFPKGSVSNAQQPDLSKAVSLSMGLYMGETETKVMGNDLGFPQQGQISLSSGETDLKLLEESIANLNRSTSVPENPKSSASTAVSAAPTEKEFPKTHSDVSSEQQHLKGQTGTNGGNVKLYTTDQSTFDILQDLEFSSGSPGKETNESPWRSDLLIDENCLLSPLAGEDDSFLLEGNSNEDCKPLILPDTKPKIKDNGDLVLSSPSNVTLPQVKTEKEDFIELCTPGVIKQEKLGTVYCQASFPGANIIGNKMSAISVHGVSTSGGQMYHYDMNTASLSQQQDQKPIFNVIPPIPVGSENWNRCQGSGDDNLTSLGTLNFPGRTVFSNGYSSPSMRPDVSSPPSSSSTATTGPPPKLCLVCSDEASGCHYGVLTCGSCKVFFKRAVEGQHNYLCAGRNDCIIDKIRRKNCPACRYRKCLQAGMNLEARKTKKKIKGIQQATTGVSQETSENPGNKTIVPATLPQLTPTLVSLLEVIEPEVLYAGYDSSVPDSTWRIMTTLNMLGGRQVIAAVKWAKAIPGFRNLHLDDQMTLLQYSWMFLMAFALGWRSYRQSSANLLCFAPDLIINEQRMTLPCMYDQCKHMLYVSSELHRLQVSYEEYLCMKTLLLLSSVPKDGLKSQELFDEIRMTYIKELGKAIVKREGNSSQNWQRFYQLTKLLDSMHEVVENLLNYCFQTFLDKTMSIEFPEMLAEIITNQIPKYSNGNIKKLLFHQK
UniProt P11142: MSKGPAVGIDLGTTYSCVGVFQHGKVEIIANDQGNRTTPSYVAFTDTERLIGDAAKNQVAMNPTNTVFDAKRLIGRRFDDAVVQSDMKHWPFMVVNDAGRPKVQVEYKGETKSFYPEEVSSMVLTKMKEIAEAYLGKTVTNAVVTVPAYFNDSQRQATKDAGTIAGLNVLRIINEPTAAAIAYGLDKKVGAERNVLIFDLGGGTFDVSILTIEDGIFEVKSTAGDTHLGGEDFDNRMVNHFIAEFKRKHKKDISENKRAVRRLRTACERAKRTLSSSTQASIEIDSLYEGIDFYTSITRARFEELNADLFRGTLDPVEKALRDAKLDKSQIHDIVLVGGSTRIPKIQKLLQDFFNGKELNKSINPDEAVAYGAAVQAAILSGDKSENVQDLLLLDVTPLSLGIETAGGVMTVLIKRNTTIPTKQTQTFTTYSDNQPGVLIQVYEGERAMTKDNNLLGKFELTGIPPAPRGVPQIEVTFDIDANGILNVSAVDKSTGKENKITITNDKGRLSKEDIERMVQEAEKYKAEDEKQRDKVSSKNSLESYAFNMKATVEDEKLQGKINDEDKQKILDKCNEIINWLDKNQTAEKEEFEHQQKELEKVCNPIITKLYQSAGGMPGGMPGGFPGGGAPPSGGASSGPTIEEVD

How the values were obtained:
[1] = target: ligand binding domain of the glucocorticoid receptor (GR-LBD), Myc/His-tagged (UniProt P04150); test: pull-down; GR-LBD immobilised on anti-c-myc agarose; [35S]-labeled in vitro translated Hsc70 in 50% desalted reticulocyte lysate, buffer B (100 mM KOAc, 20 mM HEPES-KOH pH 7.5, 5% glycerol), 5 mM MgOAc2, with or without 1 mM ATP; bound Hsc70 read with a phospho-imager; only the target purified
[2] = target: Flag-tagged wild-type Bcl2-associated athanogene 1, medium isoform (BAG-1M) (human); test: co-IP; Flag-tagged NEF precipitated with anti-Flag M2 agarose from 1.5 mg HEK293 cellular extract in 1 ml; no ATP added; eluted with Flag-peptide; Western blot and colloidal Coomassie

| binding [1] | binding [2] | Molecule |
| --- | --- | --- |
| binds | – | Hsc70, in vitro translated and labeled (from UniProt P11142 1-646) |
| – | no binding | Hsp70-interacting protein (Hip), endogenous (protein, UniProt P50502 1-369) MDPRKVNELRAFVKMCKQDPSVLHTEEMRFLREWVESMGGKVPPATQKAKSEENTKEEKPDSKKVEEDLKADEPSSEESDLEIDKEGVIEPDTDAPQEMGDENAEITEEMMDQANDKKVAAIEALNDGELQKAIDLFTDAIKLNPRLAILYAKRASVFVKLQKPNAAIRDCDRAIEINPDSAQPYKWRGKAHRLLGHWEEAAHDLALACKLDYDEDASAMLKEVQPRAQKIAEHRRKYERKREEREIKERIERVKKAREEHERAQREEEARRQSGAQYGSFPGGFPGGMPGNFPGGMPGMGGGMPGMAGMPGLNEILSDPEVLAAMQDPEVMVAFQDVAQNPANMSKYQSNPKVMNLISKLSAKFGGQA |

Results are given in words; binding and its absence hold for the method and conditions named. Binding seen in cells or lysates may run through a third protein. For some assays here: A result given as binding can be weak or reduced; the word gives no strength.
